Results are given in words; binding and its absence hold for the method and conditions named. Some binding calls cover weakened binding; strength is not graded here.

For this assay, the target named is T1, ALK2 (BMP type I receptor, activin A type I receptor) on murine 2H11 endothelial cells (mouse (endogenous in 2H11)) (UniProt P37172).
T1 sequence: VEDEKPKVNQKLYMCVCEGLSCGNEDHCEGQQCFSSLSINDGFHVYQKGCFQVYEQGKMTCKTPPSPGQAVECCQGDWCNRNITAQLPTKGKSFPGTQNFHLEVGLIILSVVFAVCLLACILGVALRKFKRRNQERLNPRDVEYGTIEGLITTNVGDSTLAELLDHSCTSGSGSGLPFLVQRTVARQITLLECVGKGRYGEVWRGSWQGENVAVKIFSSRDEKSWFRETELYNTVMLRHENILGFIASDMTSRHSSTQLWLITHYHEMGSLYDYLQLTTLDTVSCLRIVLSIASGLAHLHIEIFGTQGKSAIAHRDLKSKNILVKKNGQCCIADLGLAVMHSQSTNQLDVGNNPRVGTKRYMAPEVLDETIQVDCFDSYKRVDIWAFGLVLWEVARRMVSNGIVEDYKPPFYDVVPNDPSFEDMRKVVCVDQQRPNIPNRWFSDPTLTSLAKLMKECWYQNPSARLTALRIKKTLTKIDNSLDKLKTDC
Kind of assay: radioligand binding; ligand affinity labeling of cell surface receptors with radiolabeled BMP-9 on murine 2H11 endothelial cells; conditions not shown; only the binder purified.

B1: BMP-9 (ligand, UniProt Q9UK05 320-429)
chain: SAGAGSHCQKTSLRVNFEDIGWDSWIIAPKEYEAYECKGGCFFPLADDVTPTKHAIVQTLVHLKFPTKVGKACCVPTKLSPISVLYKDDMGVPTLKYHYEGMSVAECGCR
modifications: radiolabeled (isotope and residues not stated)
As to B1, the binding result was “binds”.

(Values after PMC6874179, “Development of Macrocycle Kinase Inhibitors for ALK2 Using Fibrodysplasia Ossificans Progressiva‐Derived Endothelial Cells” (JBMR Plus, 2019).)
